Data on one sequence can be found in publication PMC7556403.

The chains behind the UniProt entries cited, without tags or fusion partners. Where a name states a change or a piece, a line headed by the entry shows the natural chain unless it says otherwise.
UniProt P41238: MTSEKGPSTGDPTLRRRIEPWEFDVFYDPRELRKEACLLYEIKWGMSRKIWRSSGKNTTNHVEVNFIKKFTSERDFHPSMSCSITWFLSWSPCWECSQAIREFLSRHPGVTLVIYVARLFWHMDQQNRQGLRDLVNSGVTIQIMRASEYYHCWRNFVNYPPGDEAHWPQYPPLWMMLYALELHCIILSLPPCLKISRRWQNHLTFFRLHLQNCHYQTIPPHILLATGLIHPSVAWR

Construct, isoform or probe ends are uncertain for at least one entry.

The target in the data set is MBP-APO1 WT (aggregated form) (human) (UniProt P41238). As to the kind of experiment: EMSA. The conditions noted are these: Kd only plotted; 50 nM nucleic acid, 20 mM HEPES, 50 mM NaCl, 5 mM DTT, 10% glycerol (0.4 U RNase inhibitor for RNA), pH not stated for EMSA (HEPES pH 7.5 in protein buffers); recombinant protein; residues 1-236; protein details: MBP (N-terminal fusion, pMAL-C5X); label: 5' FAM; single-stranded DNA.

As to “ATTATTATTATTCAAATTTATTTATTTATTTATGGTGTTTGGTGTGGTTG [FAM-50 ssDNA]”, the binding result was “binds”.
